# Construct, isoform or probe ends are uncertain for at least one entry. At least one verdict rests on a figure or table, not on a statement of the authors.
# The chains behind the UniProt entries cited, without tags or fusion partners. Where a name states a change or a piece, a line headed by the entry shows the natural chain unless it says otherwise.
# UniProt O31418: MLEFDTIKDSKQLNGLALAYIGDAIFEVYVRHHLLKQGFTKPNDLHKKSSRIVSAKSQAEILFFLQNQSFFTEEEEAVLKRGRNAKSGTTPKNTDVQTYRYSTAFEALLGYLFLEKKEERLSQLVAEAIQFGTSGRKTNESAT
# Target: BsMiniIII (Bacillus subtilis ATCC 23857) (UniProt O31418)
# Experiment: filter binding
# Conditions: 1 mM Ca2+; Filter binding: 10 mM Tris-HCl pH 7.5, 5 mM NaCl, 1 mM CaCl2, room temperature, 1 h; 0.01 µM labeled 30 bp dsRNA, 0.1-4 µM enzyme; recombinant protein; protein details: C-terminal His6; label: 32P end label (33P in Methods for the substrate)
sequence,measurement,value
CGAUACCGUCGACCUCGAGGGGGGGCCCGG / CCGGGCCCCCCCUCGAGGUCGACGGUAUCG [30 bp dsRNA (30f/30r)],binding result,binds

# — article PMC4357697
